No constants are given. Whether binding was seen depends on the method and setting. A result given as binding can be weak or reduced; the word gives no strength.

The test deals with HLA-B*07:02 (human). Kind of test: UV-ligand exchange, b2m ELISA; grade of exchange yield. (In general: An ELISA detects its analyte on a solid surface through an enzyme-linked reagent.)

B1: … (SEQ ID No 330) (peptide)
peptide: FPFVTGSTEM
Take B1: the binding entry is “binds”.

B2: … (SEQ ID No 331) (peptide)
peptide: FPHPEMTTSM
With B2, the binding result is listed as “binds”.

B3: … (SEQ ID No 329) (peptide)
peptide: FPAMTESGGMIL
As to B3, the binding result is “binds”.

B4: … (SEQ ID No 334) (peptide)
peptide: FPYSEVTTL
For the molecule B4, the binding result is listed as “binds”.

B5: … (SEQ ID No 342) (peptide)
peptide: LPLGTSMTF
For B5, the binding result is “binds”.

B6: … (SEQ ID No 332) (peptide)
peptide: FPHSEMTTL
Regarding B6, the binding result is “binds”.

B7: … (SEQ ID No 350) (peptide)
peptide: NPSSTTTEF
For the molecule B7, the binding result was “binds”.

B8: … (SEQ ID No 323) (peptide)
peptide: RPMPNLRSV
On to B8, for which the binding entry is “binds”.

B9: … (SEQ ID No 343) (peptide)
peptide: LPSVSGVKTTF
For B9, the binding entry is given as “binds”.

B10: … (SEQ ID No 335) (peptide)
peptide: HPDPVGPGL
As for B10, the binding result is “binds”.

B11: … (SEQ ID No 347) (peptide)
peptide: MPLTTGSQGM
Turning to B11, the binding entry is on record as “binds”.

B12: … (SEQ ID No 338) (peptide)
peptide: HVTKTQATF
For B12, the binding entry is on record as “binds”.

B13: … (SEQ ID No 336) (peptide)
peptide: HPKTESATPAAY
B13: the binding result is “binds”.

B14: … (SEQ ID No 333) (peptide)
peptide: FPHSEMTTVM
For the molecule B14, the binding entry was “binds”.

B15: … (SEQ ID No 344) (peptide)
peptide: LPTQTTSSL
In the case of B15, the binding entry is “binds”.

B16: … (SEQ ID No 327) (peptide)
peptide: SPLPVTSLI
B16: the binding result was “binds”.

B17: … (SEQ ID No 325) (peptide)
peptide: GPRNAQRVL
Consider B17, for which the binding entry was “binds”.

B18: … (SEQ ID No 328) (peptide)
peptide: EPVTSSLPNF
On to B18, for which the binding result is “binds”.

B19: … (SEQ ID No 339) (peptide)
peptide: LPAGTTGSLVF
For B19, the binding result is “binds”.

B20: … (SEQ ID No 337) (peptide)
peptide: HPVETSSAL
B20: the binding result is recorded as “binds”.

B21: … (SEQ ID No 326) (peptide)
peptide: VPSEIDAAF
In the case of B21, the binding entry is given as “binds”.

B22: … (SEQ ID No 346) (peptide)
peptide: LPWDTSTTLF
B22: the binding entry is listed as “binds”.

B23: … (SEQ ID No 340) (peptide)
peptide: LPEISTRTM
For B23, the binding entry is recorded as “binds”.

B24: … (SEQ ID No 348) (peptide)
peptide: MPNSAIPFSM
Turning to B24, the binding entry was “binds”.

B25: … (SEQ ID No 345) (peptide)
peptide: LPTSESLVSF
As to B25, the binding result is reported as “binds”.

B26: … (SEQ ID No 341) (peptide)
peptide: LPLDTSTTL
B26: the binding result is on record as “binds”.

B27: … (SEQ ID No 349) (peptide)
peptide: MPSLSEAMTSF
Take B27: the binding entry is “binds”.

Values taken from patent publication US20230312680A1.
